# No constants are given. Whether binding was seen depends on the method and setting. For some of these results: Binding seen in cells or lysates may run through a third protein. Some entries that bind do so weakly or less than the wild type.
# Protein sequences, listed by entry. Tags and fused reporters are not part of them. Lines headed by an entry give the natural chain unless they say otherwise; changes in a name come on top.
# UniProt Q07065, whole entry: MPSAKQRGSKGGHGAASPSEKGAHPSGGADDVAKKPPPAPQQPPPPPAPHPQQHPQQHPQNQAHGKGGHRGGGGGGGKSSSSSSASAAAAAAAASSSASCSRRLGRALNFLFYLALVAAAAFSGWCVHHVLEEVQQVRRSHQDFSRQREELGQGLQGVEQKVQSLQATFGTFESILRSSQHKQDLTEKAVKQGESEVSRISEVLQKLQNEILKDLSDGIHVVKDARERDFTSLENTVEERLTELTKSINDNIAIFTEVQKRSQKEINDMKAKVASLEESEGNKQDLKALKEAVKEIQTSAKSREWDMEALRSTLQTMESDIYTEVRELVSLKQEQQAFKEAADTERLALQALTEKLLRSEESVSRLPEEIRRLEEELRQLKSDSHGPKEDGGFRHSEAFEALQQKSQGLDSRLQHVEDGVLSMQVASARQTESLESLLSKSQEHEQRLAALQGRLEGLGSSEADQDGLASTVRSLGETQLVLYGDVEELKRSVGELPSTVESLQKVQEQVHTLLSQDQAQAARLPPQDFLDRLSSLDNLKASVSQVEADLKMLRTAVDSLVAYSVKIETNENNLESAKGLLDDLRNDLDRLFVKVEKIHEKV
# UniProt Q9UIJ5, whole entry: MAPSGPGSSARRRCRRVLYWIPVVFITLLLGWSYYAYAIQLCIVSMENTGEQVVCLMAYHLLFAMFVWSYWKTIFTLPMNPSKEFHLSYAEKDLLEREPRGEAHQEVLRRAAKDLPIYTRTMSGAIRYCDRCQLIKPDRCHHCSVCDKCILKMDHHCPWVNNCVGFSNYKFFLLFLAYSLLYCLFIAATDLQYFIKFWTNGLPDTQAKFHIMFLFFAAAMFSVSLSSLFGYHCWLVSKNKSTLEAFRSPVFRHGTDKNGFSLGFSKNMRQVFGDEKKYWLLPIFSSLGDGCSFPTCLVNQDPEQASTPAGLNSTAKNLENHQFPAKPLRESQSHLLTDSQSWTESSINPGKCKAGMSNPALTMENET
# Experiments:
# [1] = biological target: CLIMP-63 C100A, exogenously expressed with an N-terminal HA or RFP tag (UniProt Q07065); test: co-IP
# [2] = biological target: CLIMP-63 WT, exogenously expressed with an N-terminal HA or RFP tag (UniProt Q07065); test: co-IP
# [3] = biological target: cytoskeleton-linking membrane protein 63 (CLIMP-63), endogenous (human (endogenous in HeLa)) (UniProt Q07065); test: native gel or EMSA
# [4] = biological target: cytoskeleton-linking membrane protein 63 (CLIMP-63), endogenous (human (endogenous in HeLa)) (UniProt Q07065); test: co-IP
# [5] = biological target: cytoskeleton-linking membrane protein 63 (CLIMP-63), endogenous (human (endogenous in HeLa)) (UniProt Q07065); test: proximity ligation
molecule,measurement,setting,value
"CLIMP-63 C100A, exogenously expressed with an N-terminal HA or RFP tag (from UniProt Q07065 1-602)",binding,[1],binds
"CLIMP-63 WT, exogenously expressed with an N-terminal HA or RFP tag (from UniProt Q07065 1-602)",binding,[2],binds
"cytoskeleton-linking membrane protein 63 (CLIMP-63), endogenous (from UniProt Q07065 1-602)",binding,[3],binds
palmitoyltransferase ZDHHC2 (from UniProt Q9UIJ5 1-367) (enzyme),binding,[4],binds
same,binding,[5],binds
"palmitoylacyltransferase ZDHHC6 (enzyme, UniProt Q9H6R6 1-413) MGTFCSVIKFENLQELKRLCHWGPIIALGVIAICSTMAMIDSVLWYWPLHTTGGSVNFIMLINWTVMILYNYFNAMFVGPGFVPLGWKPEISQDTMYLQYCKVCQAYKAPRSHHCRKCNRCVMKMDHHCPWINNCCGYQNHASFTLFLLLAPLGCIHAAFIFVMTMYTQLYHRLSFGWNTVKIDMSAARRDPLPIVPFGLAAFATTLFALGLALGTTIAVGMLFFIQMKIILRNKTSIESWIEEKAKDRIQYYQLDEVFVFPYDMGSRWRNFKQVFTWSGVPEGDGLEWPVREGCHQYSLTIEQLKQKADKRVRSVRYKVIEDYSGACCPLNKGIKTFFTSPCTEEPRIQLQKGEFILATRGLRYWLYGDKILDDSFIEGVSRIRGWFPRKCVEKCPCDAETDQAPEGEKKNR",binding,[4],binds
same,binding,[5],binds
